The chains are these.
T1: EMB1579-NLuc (Arabidopsis thaliana) (UniProt F4IS91)
T1 sequence: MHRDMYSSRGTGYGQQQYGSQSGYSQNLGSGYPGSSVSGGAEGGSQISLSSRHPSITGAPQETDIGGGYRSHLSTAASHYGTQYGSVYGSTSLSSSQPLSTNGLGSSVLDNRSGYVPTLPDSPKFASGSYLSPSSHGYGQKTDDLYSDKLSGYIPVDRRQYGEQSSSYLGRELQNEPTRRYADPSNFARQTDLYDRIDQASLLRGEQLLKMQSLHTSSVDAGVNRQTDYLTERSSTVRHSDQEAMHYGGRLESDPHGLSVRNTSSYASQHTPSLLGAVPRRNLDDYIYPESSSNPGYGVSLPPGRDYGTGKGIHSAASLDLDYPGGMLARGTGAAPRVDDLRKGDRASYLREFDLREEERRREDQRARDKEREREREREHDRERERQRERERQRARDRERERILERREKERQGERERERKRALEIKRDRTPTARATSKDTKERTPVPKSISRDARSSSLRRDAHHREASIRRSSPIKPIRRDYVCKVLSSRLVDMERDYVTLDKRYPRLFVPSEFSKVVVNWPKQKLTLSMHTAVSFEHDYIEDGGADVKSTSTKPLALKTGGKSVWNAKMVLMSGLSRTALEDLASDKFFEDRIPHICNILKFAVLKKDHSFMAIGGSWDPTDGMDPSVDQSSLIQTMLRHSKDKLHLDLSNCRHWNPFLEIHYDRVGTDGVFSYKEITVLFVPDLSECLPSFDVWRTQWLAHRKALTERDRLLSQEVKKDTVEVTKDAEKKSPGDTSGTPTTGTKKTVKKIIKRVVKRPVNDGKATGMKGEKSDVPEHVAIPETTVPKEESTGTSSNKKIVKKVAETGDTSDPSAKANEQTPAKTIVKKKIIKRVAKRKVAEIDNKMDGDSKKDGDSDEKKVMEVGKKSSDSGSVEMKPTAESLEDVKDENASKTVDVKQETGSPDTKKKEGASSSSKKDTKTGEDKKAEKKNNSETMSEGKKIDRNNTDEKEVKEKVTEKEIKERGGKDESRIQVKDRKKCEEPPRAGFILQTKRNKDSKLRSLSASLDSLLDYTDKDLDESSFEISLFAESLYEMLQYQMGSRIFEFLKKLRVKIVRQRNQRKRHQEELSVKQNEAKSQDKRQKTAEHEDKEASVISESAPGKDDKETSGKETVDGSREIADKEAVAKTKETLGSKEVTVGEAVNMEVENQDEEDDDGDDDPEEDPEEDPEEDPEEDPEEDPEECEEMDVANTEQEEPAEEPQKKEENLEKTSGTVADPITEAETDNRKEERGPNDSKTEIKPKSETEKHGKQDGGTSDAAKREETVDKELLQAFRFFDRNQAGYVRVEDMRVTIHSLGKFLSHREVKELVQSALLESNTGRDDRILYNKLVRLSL

B1: CLuc-RBP45A (protein, UniProt Q9FPJ8 1-387)
chain: MQQPPSNAAGAGQIPSGQQHLWMMMQQQQQQQQMQLSAAPLGQHQYGIGSQNPGSASDVKSLWIGDLQQWMDENYIMSVFAQSGEATSAKVIRNKLTGQSEGYGFIEFVSHSVAERVLQTYNGAPMPSTEQTFRLNWAQAGAGEKRFQTEGPDHTIFVGDLAPEVTDYMLSDTFKNVYGSVKGAKVVLDRTTGRSKGYGFVRFADENEQMRAMTEMNGQYCSTRPMRIGPAANKNALPMQPAMYQNTQGANAGDNDPNNTTIFVGGLDANVTDDELKSIFGQFGELLHVKIPPGKRCGFVQYANKASAEHALSVLNGTQLGGQSIRLSWGRSPNKQSDQAQWNGGGYYGYPPQPQGGYGYAAQPPTQDPNAYYGGYTGYGNYQQQRQ
B2: CLuc-BTF3 (protein, UniProt Q9SMW7 1-165)
chain: MNREKLMKMANTVRTGGKGTVRRKKKAVHKTNTTDDKRLQSTLKRIGVNSIPAIEEVNIFKDDVVIQFINPKVQASIAANTWVVSGSPQTKKLQDILPQIISQLGPDNMDNLKKLAEQFQKQASGEGNAASATIQEEDDDDVPELVGETFETAAEEKAPAAAASS
B3: CLuc-RAD51D (protein, UniProt Q9LQQ2 1-322)
chain: MAPLKHLEKENPIIDACFQDFCASHGILTIEDFLLHDLYELTAFSQRQTNADRLKEGITLILSLIERQCRPLVNGLKLLEDLHRNKHTLSTGDKETDSLLQGGFREGQLTELVGPSSSGKTQFCMQAAASVAENHLGRVLYLDTGNSFSARRIAQFICSSSDATLGQKVMSRILCHTVYDIYTLFDTLQDLEITLRLQMNVNESRLRLLVVDSISSLITPILGGSGSQGRALMVAIGYLLKKLAHEHSIAILVTNHTVGAGGEGGKTKPALGETWKSIPHVRLSLSRDHKNSNCTISILKHTSLPSGQAAKTLTRKENQQCP
B4: CLuc-MED8 (protein, UniProt Q4V3C1 1-524)
chain: METQPQQPPPPPVAEKLNPKLEKELNLESLKTRAVSLAKAIARILEDFDAYGRTNTTPKWQDILGQYSMVNLELFNIVEEVKRVSNAFVVLPKNVNAMNAAILPVMLSSKLLPEMETDDNAKREQLLQGVQSLPIPMQIERLKARMDMIAAACENAERVLADTRKAYGFGTRQGPSMLPTMDKGQAAKIQEQEKMLRDAVNDGKGTQLPPDQRQITTALPPHLADVLIINDAGKIALPGQSNNINNQGMMQVSGTQFVGRSAASPSGPNFDNTTSPLPYSNSPRATGMVNVPSPQHQIQQQQFQQQQQRSKLMQLPQHQQQQLLAQQQQQLRQSSMQGLGQSQIPALHDMHGQAQQKFQTSHGQHQMPYSQPMGAHQQFQARQLSGGHIQHSMSQGQLNPAMNRHLNQFSGGANSALFTSAQGSPSSQMIPNMSSMQSQTLVPRMQQFGVSGTNPQRSHSSQMLGDQMFNTSGMMQTQQTQIQQSQQQQQQQQQGGYGNMQTNQQSLQPNNMMQNAQQRHQNPQ
B5: CLuc-LIF2 (protein, UniProt Q9ASP6 1-495)
chain: MSDARDNDDRVDFEEGSYSEMEDEVEEEQVEEYEEEEEEDDDDDDVGNQNAEEREVEDYGDTKGGDMEDVQEEIAEDDDNHIDIETADDDEKPPSPIDDEDREKYSHLLSLPPHGSEVFIGGLPRDVGEEDLRDLCEEIGEIFEVRLMKDRDSGDSKGYAFVAFKTKDVAQKAIEELHSKEFKGKTIRCSLSETKNRLFIGNIPKNWTEDEFRKVIEDVGPGVENIELIKDPTNTTRNRGFAFVLYYNNACADYSRQKMIDSNFKLEGNAPTVTWADPKSSPEHSAAAAQVKALYVKNIPENTSTEQLKELFQRHGEVTKIVTPPGKGGKRDFGFVHYAERSSALKAVKDTERYEVNGQPLEVVLAKPQAERKHDPSSYSYGAAPTPAPFVHPTFGGFAAAPYGAMGAGLGIAGSFSQPMIYGRGAMPTGMQMVPMLLPDGRVGYVLQQPGMPMAAAPPQRPRRNDRNNGSSGGSGRDNSHEHDGNRGGRRYRPY
B6: CLuc-RBP47C (protein, UniProt Q9SX79 1-432)
chain: MADVKIQSESESSDSHPVVDNQPPPPPPPPQQPAKEEENQPKTSPTPPPHWMRYPPTVIIPHQMMYAPPPFPPYHQYPNHHHLHHQSRGNKHQNAFNGENKTIWVGDLHHWMDEAYLNSSFASGDEREIVSVKVIRNKNNGLSEGYGFVEFESHDVADKVLREFNGTTMPNTDQPFRLNWASFSTGEKRLENNGPDLSIFVGDLSPDVSDNLLHETFSEKYPSVKAAKVVLDANTGRSKGYGFVRFGDENERTKAMTEMNGVKCSSRAMRIGPATPRKTNGYQQQGGYMPNGTLTRPEGDIMNTTIFVGGLDSSVTDEDLKQPFNEFGEIVSVKIPVGKGCGFVQFVNRPNAEEALEKLNGTVIGKQTVRLSWGRNPANKQPRDKYGNQWVDPYYGGQFYNGYGYMVPQPDPRMYPAAPYYPMYGGHQQQVS
B7: CLuc-U1-70K (protein, UniProt Q42404 1-427)
chain: MGDSGDPFLRNPNAAVQARAKVQNRANVLQLKLMGQSHPTGLTNNLLKLFEPRPPLEYKPPPEKRKCPPYTGMAQFVSNFAEPGDPEYAPPKPEVELPSQKRERIHKLRLEKGVEKAAEDLKKYDPNNDPNATGDPYKTLFVSRLNYESSESKIKREFESYGPIKRVHLVTDQLTNKPKGYAFIEYMHTRDMKAAYKQADGQKIDGRRVLVDVERGRTVPNWRPRRLGGGLGTSRVGGGEEIVGEQQPQGRTSQSEEPSRPREEREKSREKGKERERSRELSHEQPRERSRDRPREDKHHRDRDQGGRDRDRDSRRDRDRTRDRGDRDRRDRDRGRDRTSRDHDRDRSRKKERDYEGGEYEHEGGGRSRERDAEYRGEPEETRGYYEDDQGDTDRYSHRYDKMEEDDFRYEREYKRSKRSESREYVR
B8: CLuc-RZ-1C (protein, UniProt Q8RWN5 1-310)
chain: MAAKEGSRIFVGGLSPEVTDRDLERAFSRFGDILDCQIMLERDTGRSRGFGFITFADRRAMDESIREMHGRDFGDRVISVNRAEPKLGRDDGESHGSRGGRDSGYSIAGKGSFGGGGGGGGRVGEDECFKCGRVGHWARDCPSAGGGRGGPVGGFSSRASAYGGSDGRVDRYADRDRYVDRERYIDDRYDGAARYGARDRFDSREAYIPRDRYASDRYAAPADRFAGGDRYSRGSDRYPPGSYDKARSFERDIAPSAGSDRYGGGRAGGPIRGGGEEGRGFRSRAGAPYERPSRSGGGGAYPSSSTFDRY
B9: CLuc-EBP1 (protein, UniProt Q96327 1-392)
chain: MSSDDERDEKELSLTSPEVVTKYKSAAEIVNKALQVVLAECKPKAKIVDICEKGDSFIKEQTASMYKNSKKKIERGVAFPTCISVNNTVGHFSPLASDESVLEDGDMVKIDMGCHIDGFIALVGHTHVLQEGPLSGRKADVIAAANTAADVALRLVRPGKKNTDVTEAIQKVAAAYDCKIVEGVLSHQLKQHVIDGNKVVLSVSSPETTVDEVEFEENEVYAIDIVASTGDGKPKLLDEKQTTIYKKDESVNYQLKMKASRFIISEIKQNFPRMPFTARSLEEKRARLGLVECVNHGHLQPYPVLYEKPGDFVAQIKFTVLLMPNGSDRITSHTLQELPKKTIEDPEIKGWLALGIKKKKGGGKKKKAQKAGEKGEASTEAEPMDASSNAQE
B10: CLuc-RAD23C (protein, UniProt Q84L31 1-419)
chain: MKIFVKTLKGTHFEIEVKPEDSVVDVKKNIESVQGADVYPAAKQMLIHQGKVLKDETTIEENKVAENSFIVIMMNKSKPASAAASSASAGTSQAKSIPPSTSQPSISPQTPASVSAPVAPAPTRPPPPAPTPTPAPVAATETVTTPIPEPVPATISSSTPAPDSAPVGSQGDVYGQAASNLAAGSNLESTIQQILDMGGGTWDRETVVLALRAAFNNPERAVEYLYTGIPEQAEVPPVARPPASAGQPANPPAQTQQPAAAPASGPNANPLDLFPQGLPNVGGNPGAGTLDFLRNSQQFQALRAMVQANPQVLQPMLQELGKQNPNLMRLIQDHQADFLRLINEPVEGGGESGNLLGQMAAGMPQPQAIQVTHEEREAIERLEAMGFERALVLEVFFACNKNEELAANYLLDHMHEFEE

No constants are given. Whether binding was seen depends on the method and setting. In cells and extracts the contact can be indirect. Some results given as binding are weak or reduced against the parent protein; the word gives no strength. Where a sequence is shown, tags or fusion partners need not be part of it.

This experiment has as its target T1, EMB1579-NLuc (Arabidopsis thaliana). The experiment can be described thus: split reporter; firefly split luciferase complementation imaging; NLuc and CLuc fusions co-infiltrated by Agrobacterium into N. benthamiana leaves, 60 hours, 1 mM D-luciferin.
Consider B1, for which the binding result is recorded as “binds”.

Take B2: the binding result is “binds”.

Consider B3, for which the binding result is listed as “binds”.

With B4, the binding result is reported as “binds”.

In the case of B5, the binding entry is listed as “binds”.

On to B6, for which the binding entry was “binds”.

Regarding B7, the binding result is reported as “binds”.

Regarding B8, the binding entry was “binds”.

Regarding B9, the binding entry is listed as “binds”.

As to B10, the binding result is given as “binds”.

The values are drawn from publication PMC7413564, “Phase separation of Arabidopsis EMB1579 controls transcription, mRNA splicing, and development” (PLoS Biology, 2020).
